Data reported in publication doi:10.1101/2023.04.21.537835.
Results are given in words; binding and its absence hold for the method and conditions named. Binding seen in cells or lysates may run through a third protein. These calls come from enrichment with a bait or labelling near it, and not all partners need be listed.

By UniProt entry, the sequences of proteins in these tests, tags left out. Residues count along the entry.
UniProt Q07113, residues 36-2483: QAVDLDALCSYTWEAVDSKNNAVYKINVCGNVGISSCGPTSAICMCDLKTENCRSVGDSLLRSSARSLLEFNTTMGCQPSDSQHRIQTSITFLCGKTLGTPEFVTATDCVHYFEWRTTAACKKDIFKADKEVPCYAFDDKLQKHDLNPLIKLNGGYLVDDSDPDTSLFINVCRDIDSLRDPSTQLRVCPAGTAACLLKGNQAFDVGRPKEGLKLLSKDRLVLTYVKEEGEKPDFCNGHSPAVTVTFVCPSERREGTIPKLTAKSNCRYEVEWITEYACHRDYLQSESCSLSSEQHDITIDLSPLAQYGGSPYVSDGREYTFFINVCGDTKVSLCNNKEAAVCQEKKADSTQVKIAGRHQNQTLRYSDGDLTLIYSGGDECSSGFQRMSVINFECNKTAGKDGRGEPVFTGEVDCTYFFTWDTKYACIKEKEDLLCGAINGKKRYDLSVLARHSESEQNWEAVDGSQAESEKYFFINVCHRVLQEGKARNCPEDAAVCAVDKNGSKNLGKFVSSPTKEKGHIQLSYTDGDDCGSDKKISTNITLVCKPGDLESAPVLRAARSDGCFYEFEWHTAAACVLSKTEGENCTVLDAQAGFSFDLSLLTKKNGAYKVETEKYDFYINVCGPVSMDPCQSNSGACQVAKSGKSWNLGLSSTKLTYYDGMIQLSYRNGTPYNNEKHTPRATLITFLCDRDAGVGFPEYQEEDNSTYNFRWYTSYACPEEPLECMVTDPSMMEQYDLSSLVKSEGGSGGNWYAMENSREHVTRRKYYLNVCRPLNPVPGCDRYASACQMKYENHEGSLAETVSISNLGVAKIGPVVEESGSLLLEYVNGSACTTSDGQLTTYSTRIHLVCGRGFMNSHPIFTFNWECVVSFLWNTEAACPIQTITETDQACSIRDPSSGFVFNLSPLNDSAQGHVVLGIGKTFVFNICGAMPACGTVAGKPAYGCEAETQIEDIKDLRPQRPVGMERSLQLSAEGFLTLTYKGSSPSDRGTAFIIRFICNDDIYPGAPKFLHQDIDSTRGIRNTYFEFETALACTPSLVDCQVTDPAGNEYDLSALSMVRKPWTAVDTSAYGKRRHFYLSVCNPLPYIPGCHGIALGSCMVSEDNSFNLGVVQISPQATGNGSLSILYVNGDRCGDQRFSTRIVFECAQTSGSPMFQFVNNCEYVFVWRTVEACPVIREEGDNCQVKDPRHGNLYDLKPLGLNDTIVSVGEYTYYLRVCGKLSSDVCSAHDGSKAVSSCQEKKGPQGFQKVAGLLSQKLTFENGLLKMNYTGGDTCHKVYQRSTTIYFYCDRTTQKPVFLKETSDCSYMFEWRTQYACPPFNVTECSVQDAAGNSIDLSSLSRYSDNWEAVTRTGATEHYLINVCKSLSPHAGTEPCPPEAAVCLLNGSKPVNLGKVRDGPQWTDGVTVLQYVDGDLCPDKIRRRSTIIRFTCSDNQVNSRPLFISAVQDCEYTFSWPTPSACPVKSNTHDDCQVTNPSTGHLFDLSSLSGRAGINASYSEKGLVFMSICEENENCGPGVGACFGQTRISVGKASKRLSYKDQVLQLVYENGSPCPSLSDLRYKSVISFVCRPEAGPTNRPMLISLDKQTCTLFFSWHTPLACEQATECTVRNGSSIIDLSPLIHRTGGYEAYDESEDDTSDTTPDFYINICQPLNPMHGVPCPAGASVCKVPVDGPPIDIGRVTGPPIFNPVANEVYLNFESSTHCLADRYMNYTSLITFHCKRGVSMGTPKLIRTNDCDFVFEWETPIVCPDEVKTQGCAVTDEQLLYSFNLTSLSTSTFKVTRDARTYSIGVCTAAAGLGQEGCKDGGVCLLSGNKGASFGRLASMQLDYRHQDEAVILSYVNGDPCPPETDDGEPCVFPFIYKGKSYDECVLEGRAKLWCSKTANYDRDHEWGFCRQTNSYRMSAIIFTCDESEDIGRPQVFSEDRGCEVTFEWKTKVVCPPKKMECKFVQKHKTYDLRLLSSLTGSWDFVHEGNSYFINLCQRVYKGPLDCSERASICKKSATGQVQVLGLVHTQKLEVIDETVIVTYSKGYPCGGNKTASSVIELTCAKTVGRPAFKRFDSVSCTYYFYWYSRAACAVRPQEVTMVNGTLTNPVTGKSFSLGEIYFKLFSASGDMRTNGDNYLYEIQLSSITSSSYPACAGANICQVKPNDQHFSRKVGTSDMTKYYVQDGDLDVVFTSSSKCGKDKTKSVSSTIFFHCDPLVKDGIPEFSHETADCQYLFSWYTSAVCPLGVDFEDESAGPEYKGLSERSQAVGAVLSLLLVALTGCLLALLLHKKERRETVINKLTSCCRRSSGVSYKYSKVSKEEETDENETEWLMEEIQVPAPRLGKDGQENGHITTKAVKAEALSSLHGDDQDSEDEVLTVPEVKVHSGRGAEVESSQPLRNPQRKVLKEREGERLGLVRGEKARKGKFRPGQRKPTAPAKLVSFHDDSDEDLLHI
UniProt O35744, residues 22-398: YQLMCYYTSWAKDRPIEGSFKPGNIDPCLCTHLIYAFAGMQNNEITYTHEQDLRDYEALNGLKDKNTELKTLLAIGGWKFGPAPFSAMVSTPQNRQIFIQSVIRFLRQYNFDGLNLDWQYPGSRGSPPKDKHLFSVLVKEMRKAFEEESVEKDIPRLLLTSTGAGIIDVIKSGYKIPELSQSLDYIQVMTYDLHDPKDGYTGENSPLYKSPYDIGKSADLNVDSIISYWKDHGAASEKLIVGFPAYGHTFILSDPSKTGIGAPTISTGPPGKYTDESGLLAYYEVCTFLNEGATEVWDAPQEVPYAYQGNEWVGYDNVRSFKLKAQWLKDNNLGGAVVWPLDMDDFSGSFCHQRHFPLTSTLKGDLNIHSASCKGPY

B1: Ngp (protein, UniProt O08692 22-167)
chain: LRQLRYEEIVDRAIEAYNQGRQGRPLFRLLSATPPSSQNPATNIPLQFRIKETECTSTQERQPKDCDFLEDGEERNCTGKFFRRRQSTSLTLTCDRDCSREDTQETSFNDKQDVSEKEKFEDVPPHIRNIYEDAKYDIIGNILKNF
B2: S100a9 (protein, UniProt P31725 1-113)
chain: MANKAPSQMERSITTIIDTFHQYSRKEGHPDTLSKKEFRQMVEAQLATFMKKEKRNEALINDIMEDLDTNQDNQLSFEECMMLMAKLIFACHEKLHENNPRGHGHSHGKGCGK
B3: Ltf (protein, UniProt P08071 20-707)
chain: KATTVQWCAVSNSEEEKCLRWQNEMRKVGGPPLSCVKKSSTRQCIQAIVTNRADAMTLDGGTMFDAGKPPYKLRPVAAEVYGTKEQPRTHYYAVAVVKNSSNFHLNQLQGLRSCHTGIGRSAGWKIPIGTLRPYLNWNGPPASLEEAVSKFFSKSCVPGAQKDRFPNLCSSCAGTGANKCASSPEEPYSGYAGALRCLRDNAGDVAFTRGSTVFEELPNKAERDQYKLLCPDNTWKPVTEYKECHLAQVPSHAVVSRSTNDKEEAIWELLRQSQEKFGKKQASGFQLFASPSGQKDLLFKESAIGFVRVPQKVDVGLYLTFSYTTSIQNLNKKQQDVIASKARVTWCAVGSEEKRKCDQWNRASRGRVTCISFPTTEDCIVAIMKGDADAMSLDGGYIYTAGKCGLVPVLAENQKSSKSNGLDCVNRPVEGYLAVAAVRREDAGFTWSSLRGKKSCHTAVDRTAGWNIPMGLLANQTRSCKFNEFFSQSCAPGADPKSNLCALCIGDEKGENKCAPNSKERYQGYTGALRCLAEKAGNVAFLKDSTVLQNTDGKNTEEWARNLKLKDFELLCLDDTRKPVTEAKNCHLAIAPNHAVVSRTDKVEVLQQVLLDQQVQFGRNGQRCPGEFCLFQSKTKNLLFNDNTECLAKIPGKTTSEKYLGKEYVIATERLKQCSSSPLLEACAFLTQ

biological target: insulin-like growth factor 2 receptor (IGF2R) (mouse (endogenous in heart grafts)) (UniProt Q07113); assay: affinity purification with mass spectrometry

binding, binds:
Chil3 (Chi3l3) (from UniProt O35744 22-398)
B1
B2
B3
